Measured values reported in article PMC12494544 (The Journal of Biological Chemistry, 2025).
Results are given in words; binding and its absence hold for the method and conditions named. In cells and extracts the contact can be indirect. Binding calls can cover weak binding; strength is not graded here. Where a sequence is shown, tags or fusion partners need not be part of it.

Sequences of proteins named here, by UniProt entry; tags and fusion partners are left off. A change or cut given only in a name is not applied to a line headed by its entry.
UniProt Q9I4Y0: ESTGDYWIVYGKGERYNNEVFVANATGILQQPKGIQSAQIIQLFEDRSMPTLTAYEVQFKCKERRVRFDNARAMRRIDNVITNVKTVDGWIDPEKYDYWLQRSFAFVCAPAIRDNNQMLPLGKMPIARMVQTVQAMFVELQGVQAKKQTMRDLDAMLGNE

Target: T1, PA0990-VSV (PA0990 protein fused with a VSV affinity tag) (P. aeruginosa PAO1) (UniProt Q9I4X9)
T1 sequence: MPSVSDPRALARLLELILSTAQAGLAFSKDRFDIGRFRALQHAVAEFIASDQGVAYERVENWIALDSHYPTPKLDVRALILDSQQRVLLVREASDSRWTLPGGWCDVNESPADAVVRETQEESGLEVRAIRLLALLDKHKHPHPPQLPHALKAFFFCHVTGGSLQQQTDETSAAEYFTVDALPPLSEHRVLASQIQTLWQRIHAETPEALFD
Test: co-IP

Q: How did the binding turn out when “PseM-FLAG (P. aeruginosa secreted endolytic muramidase, product of gene locus PA0989) (from UniProt Q9I4Y0) (enzyme)” was run?
A: Its binding is “binds”.
